Values of other authors in patent US20240398725A1, “NANOPARTICLES FOR CANCER TREATMENT” (priority 2021, published 2024).

Conditions: cited from earlier work

COc1cc(/C=C/C(=O)CC(=O)/C=C/c2ccc(O)c(OC)c2)ccc1O [Curcumin, (E,E)-1,7-bis (4 hydroxy-3-methoxyphenyl)-1,6-heptadiene-3,5,-dione]
solubility in ethanol, alkalis, ketones, acetic acid and chloroform (ethanol, alkalis, ketones, acetic acid, chloroform): soluble | solubility in water (water): insoluble
